Results deposited as PubChem BioAssay AID1159545 (Gurdon Institute, 2015)
Of all reagents, 21 (50%) are marked active. Unmarked entries are inactive. The numbers tell different reagents against one gene apart. The record does not give: the time to read-out.

Assay: 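Screen of human E2 enzymes for effects on camptothecin-induced phospho-RPA2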
Cell system: human U2OS osteosarcoma cells
Reagents: siRNA against human genes, about 60 nM siRNA
Conditions: camptothecin 1 uM for 1 hour
Read-out: 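After a 1 h pulse of 1 µM camptothecin, the phospho-RPA2/total RPA2 band ratio is scaled to luciferase siRNA control, minus the same ratio without damage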
Direction: pRPA2/RPA2 after camptothecin, % control: higher = more RPA2 phosphorylation after camptothecin
Rule for the call: 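Called active when phospho-RPA2 to RPA2 departs from control in either direction by over 40 percent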

no.	gene	siRNA no.	pRPA2/RPA2 after camptothecin, % control
1	UBE2H	1	60.9
2	UBE2W	1	42.1 (active)
3	UBE2Q2	1	85.6
4	UBE2T	1	42.4 (active)
5	UBE2NL	1	60.2
6	UBE2K	1	27.2 (active)
7	UBE2E3	1	45.8 (active)
8	UEVLD	1	88.5
9	UBE2F	1	45.5 (active)
10	UBE2Q1	1	29.2 (active)
11	BRCA1	1	102
12	UBE2D4	1	76.9
13	UBE2S	1	61.7
14	UBE2G2	1	71
15	UBE2M	1	140
16	RBBP8	1	2.5 (active)
17	UBE2A	1	36.3 (active)
18	UBE2E2	1	64.9
19	UBE2R2	1	24.5 (active)
20	AKTIP	1	85
21	UBE2J1	1	33.7 (active)
22	UBE2N	1	3.26 (active)
23	UBE2N	2	37.8 (active)
24	TSG101	1	99.1
25	CDC34	1	6 (active)
26	UBE2D3	1	0 (active)
27	UBE2V1	1	52.4 (active)
28	UBE2J2	1	65.4
29	UBE2Z	1	84.1
30	UBE2L6	1	99.3
31	UBE2L3	1	32.9 (active)
32	BIRC6	1	68.2
33	UBE2C	1	107
34	UBE2O	1	6.42 (active)
35	UBE2D1	1	72.6
36	UBE2G1	1	39.7 (active)
37	UBE2E1	1	112
38	UBE2U	1	22.7 (active)
39	UBE2V2	1	41.4 (active)
40	UBE2B	1	116
41	UBE2D2	1	7.58 (active)
